{"sequences": {"note": "Protein sequences, listed by entry. Tags and fused reporters are not part of them. Lines headed by an entry give the natural chain unless they say otherwise; changes in a name come on top.", "UniProt Q9Y5U9": "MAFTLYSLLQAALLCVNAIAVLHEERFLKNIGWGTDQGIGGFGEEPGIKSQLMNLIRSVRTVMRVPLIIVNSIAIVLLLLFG", "UniProt Q08334": "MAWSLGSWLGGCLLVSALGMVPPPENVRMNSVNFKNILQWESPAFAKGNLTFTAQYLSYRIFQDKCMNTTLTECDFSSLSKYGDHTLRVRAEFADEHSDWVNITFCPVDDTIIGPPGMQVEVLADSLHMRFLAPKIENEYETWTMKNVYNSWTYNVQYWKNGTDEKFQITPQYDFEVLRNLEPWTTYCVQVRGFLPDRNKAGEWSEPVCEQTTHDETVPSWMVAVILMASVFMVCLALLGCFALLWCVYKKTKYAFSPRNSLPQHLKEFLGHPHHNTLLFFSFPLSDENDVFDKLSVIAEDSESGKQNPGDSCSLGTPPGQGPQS", "UniProt Q14773": "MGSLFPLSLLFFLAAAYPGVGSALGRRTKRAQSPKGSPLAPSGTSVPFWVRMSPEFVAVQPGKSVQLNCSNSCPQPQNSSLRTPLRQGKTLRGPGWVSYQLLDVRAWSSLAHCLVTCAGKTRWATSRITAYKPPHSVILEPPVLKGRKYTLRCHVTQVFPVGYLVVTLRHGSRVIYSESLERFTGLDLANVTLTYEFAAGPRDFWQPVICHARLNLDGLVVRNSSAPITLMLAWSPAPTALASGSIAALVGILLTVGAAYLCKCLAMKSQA", "UniProt P50213": "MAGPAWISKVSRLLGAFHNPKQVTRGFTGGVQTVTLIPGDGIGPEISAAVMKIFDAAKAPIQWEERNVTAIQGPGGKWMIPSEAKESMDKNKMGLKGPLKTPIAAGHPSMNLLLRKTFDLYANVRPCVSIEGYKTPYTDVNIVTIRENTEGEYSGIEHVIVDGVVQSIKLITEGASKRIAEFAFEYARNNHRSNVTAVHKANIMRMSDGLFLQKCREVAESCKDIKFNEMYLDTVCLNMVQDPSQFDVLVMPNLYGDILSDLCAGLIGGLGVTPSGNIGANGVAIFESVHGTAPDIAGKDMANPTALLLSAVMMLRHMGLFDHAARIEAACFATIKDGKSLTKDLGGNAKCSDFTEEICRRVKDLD", "UniProt Q27J81, whole entry, looked up": "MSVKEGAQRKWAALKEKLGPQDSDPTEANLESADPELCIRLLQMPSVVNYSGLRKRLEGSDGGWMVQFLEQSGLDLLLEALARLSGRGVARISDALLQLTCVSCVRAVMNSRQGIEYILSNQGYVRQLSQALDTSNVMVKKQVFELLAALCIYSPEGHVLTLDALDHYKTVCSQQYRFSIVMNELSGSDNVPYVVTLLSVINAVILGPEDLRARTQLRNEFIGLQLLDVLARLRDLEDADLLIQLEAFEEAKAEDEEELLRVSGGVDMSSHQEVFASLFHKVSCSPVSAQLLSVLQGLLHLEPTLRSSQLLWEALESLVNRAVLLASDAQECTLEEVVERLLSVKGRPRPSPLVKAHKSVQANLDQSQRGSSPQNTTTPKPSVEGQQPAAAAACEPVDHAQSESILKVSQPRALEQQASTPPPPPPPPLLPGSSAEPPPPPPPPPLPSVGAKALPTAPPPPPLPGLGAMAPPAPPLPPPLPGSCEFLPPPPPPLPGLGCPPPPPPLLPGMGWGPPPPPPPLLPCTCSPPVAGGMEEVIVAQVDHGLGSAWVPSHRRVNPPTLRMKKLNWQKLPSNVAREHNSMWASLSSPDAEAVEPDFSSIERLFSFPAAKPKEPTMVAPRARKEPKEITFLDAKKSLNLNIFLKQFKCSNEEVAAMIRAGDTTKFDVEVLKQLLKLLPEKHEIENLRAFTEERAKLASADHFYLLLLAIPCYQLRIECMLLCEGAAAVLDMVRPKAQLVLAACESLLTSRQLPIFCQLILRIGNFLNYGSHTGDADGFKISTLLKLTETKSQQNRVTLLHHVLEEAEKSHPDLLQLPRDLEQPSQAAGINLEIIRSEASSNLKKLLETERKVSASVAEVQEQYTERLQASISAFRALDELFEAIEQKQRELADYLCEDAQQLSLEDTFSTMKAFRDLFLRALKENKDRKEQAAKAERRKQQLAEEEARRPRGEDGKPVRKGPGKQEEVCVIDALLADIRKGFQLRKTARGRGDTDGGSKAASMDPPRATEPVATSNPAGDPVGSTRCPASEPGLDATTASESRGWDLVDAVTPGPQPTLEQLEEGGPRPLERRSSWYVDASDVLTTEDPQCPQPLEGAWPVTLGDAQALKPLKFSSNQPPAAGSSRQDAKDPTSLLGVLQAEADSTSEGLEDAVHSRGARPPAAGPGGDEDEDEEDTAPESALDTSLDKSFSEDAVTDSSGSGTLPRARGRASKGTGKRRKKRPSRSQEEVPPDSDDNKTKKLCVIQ", "UniProt Q659A1": "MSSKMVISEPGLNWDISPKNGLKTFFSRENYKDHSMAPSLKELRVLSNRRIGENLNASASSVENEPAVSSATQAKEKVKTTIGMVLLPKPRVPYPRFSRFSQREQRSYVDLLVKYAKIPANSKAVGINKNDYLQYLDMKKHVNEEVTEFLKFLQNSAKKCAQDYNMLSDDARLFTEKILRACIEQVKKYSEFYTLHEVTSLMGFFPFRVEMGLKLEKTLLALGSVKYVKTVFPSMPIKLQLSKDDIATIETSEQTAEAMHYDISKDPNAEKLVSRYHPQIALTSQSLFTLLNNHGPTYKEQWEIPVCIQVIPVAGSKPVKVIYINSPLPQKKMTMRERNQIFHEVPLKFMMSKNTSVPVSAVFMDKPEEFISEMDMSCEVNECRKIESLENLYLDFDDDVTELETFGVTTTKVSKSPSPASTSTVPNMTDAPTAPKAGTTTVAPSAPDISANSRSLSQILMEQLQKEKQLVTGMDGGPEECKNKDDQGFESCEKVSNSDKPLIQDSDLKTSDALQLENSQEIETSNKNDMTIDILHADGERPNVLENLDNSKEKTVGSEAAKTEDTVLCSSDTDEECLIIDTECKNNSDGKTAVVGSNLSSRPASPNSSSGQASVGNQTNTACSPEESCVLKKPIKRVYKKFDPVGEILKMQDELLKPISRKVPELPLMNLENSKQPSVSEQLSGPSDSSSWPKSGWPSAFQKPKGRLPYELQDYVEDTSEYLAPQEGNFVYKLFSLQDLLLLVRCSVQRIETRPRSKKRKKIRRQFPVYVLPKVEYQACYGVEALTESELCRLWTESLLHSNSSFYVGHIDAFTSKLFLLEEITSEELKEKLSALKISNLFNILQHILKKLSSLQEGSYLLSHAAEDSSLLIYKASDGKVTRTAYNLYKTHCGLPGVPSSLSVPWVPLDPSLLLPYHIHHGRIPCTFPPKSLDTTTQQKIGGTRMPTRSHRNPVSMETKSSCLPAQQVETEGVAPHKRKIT", "UniProt Q9NRR6": "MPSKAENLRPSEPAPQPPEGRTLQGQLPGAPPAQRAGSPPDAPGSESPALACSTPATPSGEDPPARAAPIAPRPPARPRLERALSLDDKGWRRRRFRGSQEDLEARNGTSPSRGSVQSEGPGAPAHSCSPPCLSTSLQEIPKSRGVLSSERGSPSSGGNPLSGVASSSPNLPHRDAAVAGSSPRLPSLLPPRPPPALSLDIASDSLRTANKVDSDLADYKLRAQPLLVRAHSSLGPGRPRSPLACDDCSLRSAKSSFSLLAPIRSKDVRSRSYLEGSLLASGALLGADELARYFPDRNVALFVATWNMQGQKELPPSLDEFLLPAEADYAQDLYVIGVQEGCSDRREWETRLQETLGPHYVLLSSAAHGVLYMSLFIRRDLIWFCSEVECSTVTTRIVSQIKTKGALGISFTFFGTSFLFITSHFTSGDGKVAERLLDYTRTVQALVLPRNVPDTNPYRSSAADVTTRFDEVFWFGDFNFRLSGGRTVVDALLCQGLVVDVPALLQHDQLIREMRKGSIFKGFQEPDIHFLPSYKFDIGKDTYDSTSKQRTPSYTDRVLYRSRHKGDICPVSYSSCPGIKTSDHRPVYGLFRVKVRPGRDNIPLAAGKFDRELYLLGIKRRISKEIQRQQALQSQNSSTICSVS", "UniProt O43719": "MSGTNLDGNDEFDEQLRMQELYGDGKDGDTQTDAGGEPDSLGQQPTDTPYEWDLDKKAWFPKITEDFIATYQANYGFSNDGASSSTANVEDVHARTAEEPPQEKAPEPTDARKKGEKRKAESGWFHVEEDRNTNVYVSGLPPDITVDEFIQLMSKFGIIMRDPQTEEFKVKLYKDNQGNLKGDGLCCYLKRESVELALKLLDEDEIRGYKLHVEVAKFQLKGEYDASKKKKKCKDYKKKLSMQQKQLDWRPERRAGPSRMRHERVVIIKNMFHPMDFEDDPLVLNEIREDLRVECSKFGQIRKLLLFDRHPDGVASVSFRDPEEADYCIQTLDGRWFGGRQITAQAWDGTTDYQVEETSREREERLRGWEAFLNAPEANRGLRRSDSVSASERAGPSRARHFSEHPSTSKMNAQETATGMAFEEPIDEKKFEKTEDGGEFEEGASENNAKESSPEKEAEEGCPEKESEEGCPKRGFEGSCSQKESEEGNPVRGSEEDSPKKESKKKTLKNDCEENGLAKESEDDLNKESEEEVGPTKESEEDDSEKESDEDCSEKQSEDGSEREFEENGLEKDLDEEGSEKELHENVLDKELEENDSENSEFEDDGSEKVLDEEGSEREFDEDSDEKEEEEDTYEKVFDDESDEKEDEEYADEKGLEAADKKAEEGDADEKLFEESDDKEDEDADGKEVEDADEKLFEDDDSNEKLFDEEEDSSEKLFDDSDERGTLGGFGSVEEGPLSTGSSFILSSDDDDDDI", "UniProt Q9Y2H2": "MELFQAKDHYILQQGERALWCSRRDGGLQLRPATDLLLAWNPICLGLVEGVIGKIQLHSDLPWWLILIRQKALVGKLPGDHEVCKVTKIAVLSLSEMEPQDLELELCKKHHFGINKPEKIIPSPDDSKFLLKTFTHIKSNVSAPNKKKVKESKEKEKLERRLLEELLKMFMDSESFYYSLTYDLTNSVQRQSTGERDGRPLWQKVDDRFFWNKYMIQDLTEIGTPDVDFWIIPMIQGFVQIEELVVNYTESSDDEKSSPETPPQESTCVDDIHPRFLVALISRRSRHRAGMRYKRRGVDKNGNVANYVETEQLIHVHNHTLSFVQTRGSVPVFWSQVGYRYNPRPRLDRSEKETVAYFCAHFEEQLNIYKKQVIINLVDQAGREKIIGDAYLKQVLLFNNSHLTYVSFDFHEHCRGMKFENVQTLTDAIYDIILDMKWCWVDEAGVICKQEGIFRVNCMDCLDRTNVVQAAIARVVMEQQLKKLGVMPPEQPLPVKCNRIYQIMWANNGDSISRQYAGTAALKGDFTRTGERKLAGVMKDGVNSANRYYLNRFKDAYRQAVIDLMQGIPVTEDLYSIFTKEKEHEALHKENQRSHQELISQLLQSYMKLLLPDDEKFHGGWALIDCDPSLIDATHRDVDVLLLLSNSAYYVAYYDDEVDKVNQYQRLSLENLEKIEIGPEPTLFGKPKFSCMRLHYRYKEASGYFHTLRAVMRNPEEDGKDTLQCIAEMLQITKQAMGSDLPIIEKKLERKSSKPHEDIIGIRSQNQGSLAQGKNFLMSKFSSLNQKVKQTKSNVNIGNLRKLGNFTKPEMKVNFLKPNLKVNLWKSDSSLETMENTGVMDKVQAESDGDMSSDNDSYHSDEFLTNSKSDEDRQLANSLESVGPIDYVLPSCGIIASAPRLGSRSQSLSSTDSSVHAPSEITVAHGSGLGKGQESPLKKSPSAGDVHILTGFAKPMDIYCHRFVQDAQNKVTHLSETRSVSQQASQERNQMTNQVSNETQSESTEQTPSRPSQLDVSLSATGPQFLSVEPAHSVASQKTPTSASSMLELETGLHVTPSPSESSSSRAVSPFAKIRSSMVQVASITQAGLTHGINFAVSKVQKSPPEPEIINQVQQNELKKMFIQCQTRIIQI", "UniProt P78318": "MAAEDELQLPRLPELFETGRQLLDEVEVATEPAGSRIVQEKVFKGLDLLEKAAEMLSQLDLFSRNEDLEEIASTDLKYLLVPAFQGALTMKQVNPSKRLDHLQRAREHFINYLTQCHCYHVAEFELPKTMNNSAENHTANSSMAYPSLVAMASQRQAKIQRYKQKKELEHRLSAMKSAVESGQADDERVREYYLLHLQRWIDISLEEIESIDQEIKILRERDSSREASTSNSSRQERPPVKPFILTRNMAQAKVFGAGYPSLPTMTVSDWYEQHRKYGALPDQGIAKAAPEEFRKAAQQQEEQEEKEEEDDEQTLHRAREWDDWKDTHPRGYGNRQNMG", "UniProt Q9Y366": "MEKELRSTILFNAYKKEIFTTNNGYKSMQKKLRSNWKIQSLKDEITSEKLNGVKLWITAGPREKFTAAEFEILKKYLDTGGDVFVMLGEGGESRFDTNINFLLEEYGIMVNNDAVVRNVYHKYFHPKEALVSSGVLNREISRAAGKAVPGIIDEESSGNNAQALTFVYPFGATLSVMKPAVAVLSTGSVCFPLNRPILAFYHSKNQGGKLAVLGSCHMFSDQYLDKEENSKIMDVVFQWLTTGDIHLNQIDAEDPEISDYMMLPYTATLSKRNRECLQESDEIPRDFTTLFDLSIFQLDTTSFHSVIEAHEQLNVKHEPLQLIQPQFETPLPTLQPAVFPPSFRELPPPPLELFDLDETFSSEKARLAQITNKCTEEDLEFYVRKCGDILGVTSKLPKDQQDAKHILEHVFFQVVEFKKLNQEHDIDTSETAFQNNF"}, "source": "the supplement of paper PMC10849652", "experiment_in_all_cases": "log2 fold change, soluble protein after heating vs DMSO (PISA); higher = thermal stabilisation; K562 lysate, 10 uM; active = over 0.2 and 3.5 SD of the protein, either way, in both replicates (recomputed)", "key": {"[1]": {"compound": "NCC(=O)Nc1ccc(-n2nc(C(F)(F)F)cc2-c2ccc3c(ccc4ccccc43)c2)cc1", "summary_of_the_method": "(§1)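 Soluble protein was defined as the supernatant remaining after 21,000xg for 90 min, following pooling of heated aliquots and adjustment to 0.5% NP-40 at 4°C. Before that, crude K562 extract at 1 mg/mL protein in PBS pH 7.4 with 1 mM MgCl2 was treated with 10 μM compound for 30 min and heated for 3 min across 48°C-58°C. Quantification used TMTpro 16plex LC-MS/MS with channel sums equalised, and values are log-two fold changes in thermal stability relative to solvent controls from duplicates.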"}, "vorinostat": {"compound": "O=C(CCCCCCC(=O)Nc1ccccc1)NO [vorinostat]", "summary_of_the_method": "as §1"}, "silmitasertib": {"compound": "O=C(O)c1ccc2c(c1)nc(Nc1cccc(Cl)c1)c1ccncc12 [silmitasertib]", "summary_of_the_method": "as §1"}, "[2]": {"compound": "O=C1NC(=O)C(c2cnc3ccccn23)=C1c1cn2c3c(cc(F)cc13)CN(C(=O)N1CCCCC1)CC2", "summary_of_the_method": "as §1"}, "entospletinib": {"compound": "c1cn2cc(-c3ccc4cn[nH]c4c3)nc(Nc3ccc(N4CCOCC4)cc3)c2n1 [entospletinib]", "summary_of_the_method": "as §1"}}, "note": "Some of the results follow.", "data": [{"target": "INPP5B (UniProt P32019)", "values": [{"measurement": "log2 fold change", "setting": "[1]", "result": "inactive: 0.01"}, {"measurement": "log2 fold change", "setting": "vorinostat", "result": "inactive: -0.141"}, {"measurement": "log2 fold change", "setting": "silmitasertib", "result": "inactive: -0.006"}, {"measurement": "log2 fold change", "setting": "[2]", "result": "inactive: -0.006"}, {"measurement": "log2 fold change", "setting": "entospletinib", "result": "inactive: 0.007"}]}, {"target": "IER3IP1 (UniProt Q9Y5U9)", "values": [{"measurement": "log2 fold change", "setting": "[1]", "result": "inactive: 0.015"}, {"measurement": "log2 fold change", "setting": "vorinostat", "result": "inactive: 0.091"}, {"measurement": "log2 fold change", "setting": "silmitasertib", "result": "inactive: 0.007"}, {"measurement": "log2 fold change", "setting": "entospletinib", "result": "inactive: -0.007"}]}, {"target": "HSPB1 (UniProt P04792)", "values": [{"measurement": "log2 fold change", "setting": "[1]", "result": "inactive: 0.019"}, {"measurement": "log2 fold change", "setting": "vorinostat", "result": "inactive: -0.013"}, {"measurement": "log2 fold change", "setting": "silmitasertib", "result": "inactive: -0.027"}, {"measurement": "log2 fold change", "setting": "[2]", "result": "inactive: -0.001"}, {"measurement": "log2 fold change", "setting": "entospletinib", "result": "inactive: 0.013"}]}, {"target": "ING3 (UniProt Q9NXR8)", "values": [{"measurement": "log2 fold change", "setting": "[1]", "result": "inactive: -0.08"}, {"measurement": "log2 fold change", "setting": "vorinostat", "result": "inactive: -0.21"}, {"measurement": "log2 fold change", "setting": "silmitasertib", "result": "inactive: 0.004"}, {"measurement": "log2 fold change", "setting": "[2]", "result": "inactive: -0.047"}, {"measurement": "log2 fold change", "setting": "entospletinib", "result": "inactive: -0.031"}]}, {"target": "INPP4A (UniProt Q96PE3)", "values": [{"measurement": "log2 fold change", "setting": "[1]", "result": "inactive: 0.016"}, {"measurement": "log2 fold change", "setting": "vorinostat", "result": "inactive: -0.106"}, {"measurement": "log2 fold change", "setting": "silmitasertib", "result": "inactive: 0.002"}, {"measurement": "log2 fold change", "setting": "[2]", "result": "inactive: -0.013"}, {"measurement": "log2 fold change", "setting": "entospletinib", "result": "inactive: 0.006"}]}, {"target": "ICMT (UniProt O60725)", "values": [{"measurement": "log2 fold change", "setting": "[1]", "result": "inactive: -0.055"}, {"measurement": "log2 fold change", "setting": "[2]", "result": "inactive: 0.11"}, {"measurement": "log2 fold change", "setting": "entospletinib", "result": "inactive: -0.016"}]}, {"target": "HSPB11 (UniProt Q9Y547)", "values": [{"measurement": "log2 fold change", "setting": "[1]", "result": "inactive: 0.031"}, {"measurement": "log2 fold change", "setting": "vorinostat", "result": "inactive: 0.146"}, {"measurement": "log2 fold change", "setting": "silmitasertib", "result": "inactive: -0.034"}, {"measurement": "log2 fold change", "setting": "[2]", "result": "inactive: 0.011"}, {"measurement": "log2 fold change", "setting": "entospletinib", "result": "inactive: 0.002"}]}, {"target": "INO80B (UniProt Q9C086)", "values": [{"measurement": "log2 fold change", "setting": "vorinostat", "result": "inactive: -0.112"}, {"measurement": "log2 fold change", "setting": "silmitasertib", "result": "inactive: 0.057"}]}, {"target": "IL10RB (UniProt Q08334)", "values": [{"measurement": "log2 fold change", "setting": "[1]", "result": "inactive: -0.015"}, {"measurement": "log2 fold change", "setting": "vorinostat", "result": "inactive: -0.062"}, {"measurement": "log2 fold change", "setting": "silmitasertib", "result": "inactive: 0.074"}, {"measurement": "log2 fold change", "setting": "[2]", "result": "inactive: -0.051"}, {"measurement": "log2 fold change", "setting": "entospletinib", "result": "inactive: -0.007"}]}, {"target": "IGHV3-72, A0A4W8ZXM2", "values": [{"measurement": "log2 fold change", "setting": "vorinostat", "result": "inactive: 0.071"}, {"measurement": "log2 fold change", "setting": "silmitasertib", "result": "inactive: 0.219"}]}, {"target": "ICAM4 isoform 3 (UniProt Q14773)", "values": [{"measurement": "log2 fold change", "setting": "[1]", "result": "inactive: 0.147"}, {"measurement": "log2 fold change", "setting": "vorinostat", "result": "inactive: 0.112"}, {"measurement": "log2 fold change", "setting": "silmitasertib", "result": "inactive: 0.042"}, {"measurement": "log2 fold change", "setting": "entospletinib", "result": "inactive: -0.419"}]}, {"target": "INPP5A (UniProt Q14642)", "values": [{"measurement": "log2 fold change", "setting": "[1]", "result": "inactive: -0.183"}, {"measurement": "log2 fold change", "setting": "vorinostat", "result": "inactive: -0.164"}, {"measurement": "log2 fold change", "setting": "silmitasertib", "result": "inactive: -0.002"}, {"measurement": "log2 fold change", "setting": "entospletinib", "result": "inactive: -0.068"}]}, {"target": "IBA57 (UniProt Q5T440)", "values": [{"measurement": "log2 fold change", "setting": "[1]", "result": "inactive: 0.027"}, {"measurement": "log2 fold change", "setting": "vorinostat", "result": "inactive: 0.063"}, {"measurement": "log2 fold change", "setting": "silmitasertib", "result": "inactive: 0.024"}, {"measurement": "log2 fold change", "setting": "[2]", "result": "inactive: -0.041"}, {"measurement": "log2 fold change", "setting": "entospletinib", "result": "inactive: -0.028"}]}, {"target": "IMPDH2 (UniProt H0Y4R1)", "values": [{"measurement": "log2 fold change", "setting": "[1]", "result": "inactive: -0.044"}, {"measurement": "log2 fold change", "setting": "[2]", "result": "inactive: 0.05"}, {"measurement": "log2 fold change", "setting": "entospletinib", "result": "inactive: -0.042"}]}, {"target": "IDH3A isoform 2 (UniProt P50213)", "values": [{"measurement": "log2 fold change", "setting": "[1]", "result": "inactive: 0.043"}, {"measurement": "log2 fold change", "setting": "entospletinib", "result": "inactive: 0.012"}]}, {"target": "HYDIN (UniProt Q4G0P3)", "values": [{"measurement": "log2 fold change", "setting": "[1]", "result": "inactive: 0.028"}, {"measurement": "log2 fold change", "setting": "entospletinib", "result": "inactive: -0.005"}]}, {"target": "INF2 (UniProt Q27J81)", "values": [{"measurement": "log2 fold change", "setting": "[1]", "result": "inactive: -0.023"}, {"measurement": "log2 fold change", "setting": "vorinostat", "result": "active: -0.333"}, {"measurement": "log2 fold change", "setting": "silmitasertib", "result": "inactive: -0.027"}, {"measurement": "log2 fold change", "setting": "[2]", "result": "inactive: 0.018"}, {"measurement": "log2 fold change", "setting": "entospletinib", "result": "inactive: -0.09"}]}, {"target": "IARS (UniProt P41252)", "values": [{"measurement": "log2 fold change", "setting": "[1]", "result": "inactive: 0.014"}, {"measurement": "log2 fold change", "setting": "vorinostat", "result": "active: -0.325"}, {"measurement": "log2 fold change", "setting": "silmitasertib", "result": "inactive: 0.046"}, {"measurement": "log2 fold change", "setting": "[2]", "result": "inactive: -0.008"}, {"measurement": "log2 fold change", "setting": "entospletinib", "result": "inactive: 0.031"}]}, {"target": "IGKV3D-7, A0A0C4DH55", "values": [{"measurement": "log2 fold change", "setting": "vorinostat", "result": "inactive: -0.145"}, {"measurement": "log2 fold change", "setting": "silmitasertib", "result": "inactive: -0.113"}]}, {"target": "ICE2 (UniProt Q659A1)", "values": [{"measurement": "log2 fold change", "setting": "[1]", "result": "inactive: -0.032"}, {"measurement": "log2 fold change", "setting": "vorinostat", "result": "inactive: -0.178"}, {"measurement": "log2 fold change", "setting": "silmitasertib", "result": "inactive: 0.051"}, {"measurement": "log2 fold change", "setting": "[2]", "result": "inactive: -0.008"}, {"measurement": "log2 fold change", "setting": "entospletinib", "result": "inactive: -0.217"}]}, {"target": "INPP5E (UniProt Q9NRR6)", "values": [{"measurement": "log2 fold change", "setting": "vorinostat", "result": "inactive: 0.272"}, {"measurement": "log2 fold change", "setting": "silmitasertib", "result": "inactive: -0.089"}, {"measurement": "log2 fold change", "setting": "[2]", "result": "inactive: 0.112"}]}, {"target": "HTATSF1 (UniProt O43719)", "values": [{"measurement": "log2 fold change", "setting": "[1]", "result": "inactive: -0.014"}, {"measurement": "log2 fold change", "setting": "vorinostat", "result": "inactive: -0.002"}, {"measurement": "log2 fold change", "setting": "silmitasertib", "result": "inactive: 0.008"}, {"measurement": "log2 fold change", "setting": "[2]", "result": "inactive: -0.043"}, {"measurement": "log2 fold change", "setting": "entospletinib", "result": "inactive: -0.015"}]}, {"target": "INPP5F (UniProt Q9Y2H2)", "values": [{"measurement": "log2 fold change", "setting": "[1]", "result": "inactive: 0.37"}, {"measurement": "log2 fold change", "setting": "vorinostat", "result": "inactive: -0.284"}, {"measurement": "log2 fold change", "setting": "silmitasertib", "result": "inactive: -0.115"}, {"measurement": "log2 fold change", "setting": "entospletinib", "result": "inactive: 0.029"}]}, {"target": "IGF2R (UniProt P11717)", "values": [{"measurement": "log2 fold change", "setting": "[1]", "result": "inactive: -0.006"}, {"measurement": "log2 fold change", "setting": "vorinostat", "result": "inactive: 0.085"}, {"measurement": "log2 fold change", "setting": "silmitasertib", "result": "inactive: 0.01"}, {"measurement": "log2 fold change", "setting": "[2]", "result": "inactive: 0.006"}, {"measurement": "log2 fold change", "setting": "entospletinib", "result": "inactive: -0.014"}]}, {"target": "IGBP1 (UniProt P78318)", "values": [{"measurement": "log2 fold change", "setting": "[1]", "result": "inactive: -0.009"}, {"measurement": "log2 fold change", "setting": "vorinostat", "result": "inactive: 0.072"}, {"measurement": "log2 fold change", "setting": "silmitasertib", "result": "inactive: 0.005"}, {"measurement": "log2 fold change", "setting": "[2]", "result": "inactive: 0.007"}, {"measurement": "log2 fold change", "setting": "entospletinib", "result": "inactive: 0.014"}]}, {"target": "IGSF1 isoform 4 (UniProt Q8N6C5)", "values": [{"measurement": "log2 fold change", "setting": "[1]", "result": "inactive: -0.098"}, {"measurement": "log2 fold change", "setting": "entospletinib", "result": "inactive: -0.232"}]}, {"target": "IFT22 (UniProt Q9H7X7)", "values": [{"measurement": "log2 fold change", "setting": "vorinostat", "result": "inactive: 0.003"}, {"measurement": "log2 fold change", "setting": "silmitasertib", "result": "inactive: 0.042"}, {"measurement": "log2 fold change", "setting": "entospletinib", "result": "inactive: -0.179"}]}, {"target": "IFT52 (UniProt Q9Y366)", "values": [{"measurement": "log2 fold change", "setting": "vorinostat", "result": "inactive: 0.219"}, {"measurement": "log2 fold change", "setting": "silmitasertib", "result": "inactive: -0.157"}, {"measurement": "log2 fold change", "setting": "[2]", "result": "inactive: -0.186"}]}, {"target": "IMP4 (UniProt Q96G21)", "values": [{"measurement": "log2 fold change", "setting": "[2]", "result": "inactive: 0.024"}]}, {"target": "IL15RA (UniProt Q13261)", "values": [{"measurement": "log2 fold change", "setting": "[2]", "result": "inactive: 0.049"}]}]}
